# Measurements published in the supplement of paper PMC6143611.
# Structures can show the parent of a compound that is named as a salt. ± gives the uncertainty stated by the source. This is one part of the list. Baselines shift from plate to plate; read single values as rough.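 At 6 dpf, larvae had a heat-shock-induced fluorescent stripe placed in rod outer segments; shedding distance, from stripe to outer segment tip, was measured in confocal stacks, roughly three fish per compound. Controls received 0.2% DMSO vehicle; compounds were flagged for ≥20% change versus same-week control and p < 0.001 (Dunnett test, mixed-effects models).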
# Assays:
# [1] = tested on: Danio rerio larva rod photoreceptor outer segment; experiment: rod outer segment growth distance Dg, difference from same-week DMSO control mean; higher = more outer segment growth; conditions: 20 µM; treatment time: 4 days (6-10 dpf)
# [2] = tested on: Danio rerio larva rod photoreceptor outer segment; experiment: rod outer segment shedding distance Ds, difference from same-week DMSO control mean; higher = less outer segment shedding; conditions: 20 µM; treatment time: 4 days (6-10 dpf)
SMILES,rod outer segment growth distance Dg [1],rod outer segment shedding distance Ds [2]
CCC(COC(=O)c1cc(OC)c(OC)c(OC)c1)(c1ccccc1)N(C)C (centres undefined) [Trimebutine],-0.44 ± 0.2 um,-0.66 ± 0.22 um
CN1c2ccccc2C(NCCCCCCC(=O)O)c2ccc(Cl)cc2S1(=O)=O (centres undefined) [Tianeptine sodium],-0.3 ± 0.17 um,0.05 ± 0.19 um
CN(C)[C@@H]1C(=O)C(C(N)=O)=C(O)[C@@]2(O)C(=O)C3=C(O)c4c(O)cccc4[C@@](C)(O)[C@H]3[C@H](O)[C@@H]12 [Oxytetracycline (Terramycin)],-0.96 ± 0.21 um,-0.16 ± 0.12 um
Cc1cccc(C)c1NC1=NCCCS1 [Xylazine HCl],-0.43 ± 0.23 um,0.26 ± 0.32 um
CCc1c(C(=O)C(N)=O)c2c(OCC(=O)O)cccc2n1Cc1ccccc1,-0.82 ± 0.17 um,-0.24 ± 0.28 um
CCC1(c2ccc(N)cc2)CCC(=O)NC1=O (centres undefined) [Aminoglutethimide],-0.46 ± 0.19 um,-0.14 ± 0.18 um
O=C1CC[C@@]2(O)[C@H]3Cc4ccc(O)c5c4[C@@]2(CCN3CC2CC2)[C@H]1O5 [Naltrexone HCl],0.99 ± 0.23 um,-0.19 ± 0.24 um
CC1(C)CC(O)CC(C)(C)N1[O] [Tempol],-0.81 ± 0.18 um,-0.28 ± 0.13 um
CNCC(O)c1ccc(O)cc1 (centres undefined) [Synephrine HCl],-0.06 ± 0.24 um,0.45 ± 0.28 um
O=c1[nH]c2ccccc2n1CCCN1CCC(n2c(=O)[nH]c3cc(Cl)ccc32)CC1 [Domperidone],0.59 ± 0.27 um,0.25 ± 0.27 um
C[C@]12CCC(=O)C(O)=C1CC[C@@H]1[C@@H]2CC[C@]2(C)C(=O)CC[C@@H]12 [Formestane],-0.1 ± 0.24 um,0.06 ± 0.31 um
CC(=O)Nc1ccc(OC[C@](C)(O)C(=O)Nc2ccc([N+](=O)[O-])c(C(F)(F)F)c2)cc1 [Andarine],-1.82 ± 0.15 um,-1.63 ± 0.2 um
